From the supplement of paper PMC12889115 come the findings set out here.

The other results are listed elsewhere or left out. Values are raw readings; no control value is given beside them.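 First-pass screen: polymyxin B was added at a level that permeabilizes the Salmonella outer membrane while sparing the inner membrane. DMSO wells, with and without polymyxin B, defined maximum growth. Because plates differed from one another, each plate's data were ranked separately and the compounds with the lowest OD600 were carried forward as hits.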

The test concerns Salmonella enterica serovar Typhimurium SL1344. In words: bacterial growth OD600 after 18 h with compound and polymyxin B; higher = more bacterial growth (less inhibition). As to conditions: 50 µM, Mueller-Hinton broth.

On to `COCCN(Cc1ncc[nH]1)CC1CCCN(C2Cc3ccccc3C2)C1` (configuration not stated), for which, under “polymyxin B 0.75 µg/mL”, the “bacterial growth OD600” value amounted to 0.868.

As to `CC(C)(C)CN1CC(NC2Cc3ccccc3C2)CC1=O` (configuration not stated), the “bacterial growth OD600” value (polymyxin B 1 µg/mL) was 0.747.

With `COc1cc(NC(=O)CCC2CCCN(C(=O)c3ocnc3C)C2)cc(OC)c1` (configuration not stated), for the setting “polymyxin B 1 µg/mL”, the “bacterial growth OD600” value is 1.05.

For the molecule `COc1ccc(-c2nc(CN3CCN(c4ccc(C)cc4C)CC3)c(C)o2)cc1`, the “bacterial growth OD600” value (polymyxin B 1 µg/mL) amounted to 0.571.

For the molecule `COc1ccc(-c2ccccc2NC(=O)C2CCCN2C(=O)NC(C)C)cc1` (configuration not stated), the “bacterial growth OD600” value (polymyxin B 1 µg/mL) was determined as 0.315.

In the case of `CSc1ncc(CN2CCC(C3CCN(Cc4cccnc4)CC3)C2)cn1` (configuration not stated), the “bacterial growth OD600” value (polymyxin B 0.75 µg/mL) came to 0.646.

Turning to `COc1ccc(Cc2noc(CN(C)Cc3cccc(-n4cccn4)c3)n2)cc1OC`, the “bacterial growth OD600” value (polymyxin B 1 µg/mL) is 0.958.

Consider `Cc1nonc1C(=O)N(CC1CCN(Cc2ccccc2F)CC1)CC1CCCO1` (configuration not stated), for which the “bacterial growth OD600” value (polymyxin B 1 µg/mL) turned out to be 0.989.

For the molecule `COCC(=O)Nc1cnn(-c2cccc(C(=O)N3CCN(c4cccc(C(F)(F)F)c4)CC3)c2)c1`, the “bacterial growth OD600” value (polymyxin B 0.75 µg/mL) is 0.008.

Consider `O=C(CC1C(=O)NCCN1Cc1cccc(C(F)(F)F)c1)NCCOc1cccnc1` (configuration not stated), for which, where the note is “polymyxin B 1 µg/mL”, the “bacterial growth OD600” value was 0.797.

In the case of `CN1CCC(N(C)C(=O)CC(c2cccc(O)c2)c2ccccc2Cl)CC1` (configuration not stated), the “bacterial growth OD600” value (polymyxin B 1 µg/mL) is 0.894.

As to `c1ccc(CCCc2noc(-c3ccc(NCC4COCCO4)nc3)n2)cc1` (configuration not stated), the “bacterial growth OD600” value (polymyxin B 0.75 µg/mL) is 0.499.

As to `CCn1cc(CNC2CCCc3nc(-c4cccnc4)ncc32)c(C)n1` (configuration not stated), the “bacterial growth OD600” value (polymyxin B 1 µg/mL) came to 0.797.

As to `COCc1ccc(C(=O)NCc2c(C)ncc3c2CCN(C(=O)c2cccc(-n4cccn4)c2)C3)o1`, the “bacterial growth OD600” value (polymyxin B 0.75 µg/mL) came to 0.879.

Take `CN(Cc1cnccn1)Cc1cn(Cc2ccccc2)nc1-c1ccc2c(c1)OCO2`: the “bacterial growth OD600” value (polymyxin B 1 µg/mL) stood at 0.539.

With `CCOC(=O)C1(Cc2ccccc2F)CCCN(C(=O)c2ccc(OC)nc2OC)C1` (configuration not stated), the “bacterial growth OD600” value (polymyxin B 1 µg/mL) turned out to be 0.776.

As for `COCCN1CC(C(=O)NCc2ccc3sccc3c2)CCC1=O` (configuration not stated), the “bacterial growth OD600” value (polymyxin B 1 µg/mL) was 0.766.

For `COCCN1C(=O)CC(CC(=O)N(C)Cc2cccc3ccccc23)(c2ccccc2F)C1=O` (configuration not stated), the “bacterial growth OD600” value (polymyxin B 0.75 µg/mL) amounted to 0.005.

For the molecule `CCOC(=O)C1(CCCc2ccccc2)CCN(C(=O)C2CCOC(C)(C)C2)CC1` (configuration not stated), the “bacterial growth OD600” value (polymyxin B 1 µg/mL) was determined as 0.756.

For `CCOC(=O)C1(Cc2ccccc2C(F)(F)F)CCN(C(=O)C2CC23CCC3)CC1` (configuration not stated), where the note is “polymyxin B 1 µg/mL”, the “bacterial growth OD600” value was 0.723.

As to `NC(=O)C1(C(=O)N2CCCC(CCc3cccc(F)c3)C2)CC1` (configuration not stated), the “bacterial growth OD600” value (polymyxin B 0.75 µg/mL) is 0.802.

Turning to `COc1ccc2ccc(OCc3nc(C(=O)NCC(C)C)co3)cc2c1`, the “bacterial growth OD600” value (polymyxin B 1 µg/mL) turned out to be 0.672.

With `CC(C)CC(=O)Nc1ccnn1C1CCN(Cc2cccc3cccnc23)CC1`, under “polymyxin B 0.75 µg/mL”, the “bacterial growth OD600” value is 0.847.

Regarding `COc1ccc2c(c1)OC(C)CN(Cc1cc(OC)c3c(c1)OCO3)C2` (configuration not stated), the “bacterial growth OD600” value (polymyxin B 0.75 µg/mL) was found to be 0.711.

With `c1ccc(-c2n[nH]c3c2CN(Cc2ccc4c(c2)CCO4)CC3)cc1`, the “bacterial growth OD600” value (polymyxin B 0.75 µg/mL) stood at 0.765.

As to `CC(CNC(=O)c1cn(Cc2ccccc2F)nn1)Oc1cccnc1` (configuration not stated), the “bacterial growth OD600” value (polymyxin B 1 µg/mL) came to 0.969.

For `Cc1cccc(CN2CCCC3(CCN(S(=O)(=O)C(C)C)C3)C2=O)c1` (configuration not stated), the “bacterial growth OD600” value (polymyxin B 1 µg/mL) was 0.881.

As to `CN(Cc1ccccc1)C(=O)CCC1CCN(C(=O)CCN2CCCCO2)CC1`, the “bacterial growth OD600” value (polymyxin B 1 µg/mL) was found to be 0.93.

In the case of `CCOC(=O)CN(C)Cc1cn(-c2ccccc2)nc1-c1cccc(OC)c1`, the “bacterial growth OD600” value (polymyxin B 1 µg/mL) is 0.79.

Consider `Cc1noc(C)c1CC(=O)NC1CC(=O)N(Cc2cccc3ccccc23)C1` (configuration not stated), for which, under “polymyxin B 1 µg/mL”, the “bacterial growth OD600” value was determined as 0.923.

Regarding `CC(=O)c1ccc(C(=O)N2CCc3[nH]nc(-c4ccccc4)c3C2)s1`, the “bacterial growth OD600” value (polymyxin B 0.75 µg/mL) is 0.579.

With `CCCCNC(=O)c1cn(C2CCCCC2)cc(C(=O)N(C)CCc2ccccn2)c1=O`, the “bacterial growth OD600” value (polymyxin B 0.75 µg/mL) came to 0.783.
